{"source": "PubChem BioAssay AID504793 (Drosophila RNAi Screening Center, 2011)", "aim": "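Whole-genome screen for parts of the DNA damage checkpoint at G2/M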 (primary screen)", "system": "Drosophila S2R+ cells", "reagent": "long dsRNA against Drosophila genes, about 0.25 µg dsRNA per well", "timing": "4 days of dsRNA, then 4 hours of drug before read-out", "treatment": "doxorubicin 0.5 µM for 4 hours to cause double-strand breaks, in cells also given a low, harmless dose of dsRNA against nbs to sensitise the assay", "measurement": "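Mitotic index as the number of phospho-histone H3-positive cells in each well following doxorubicin, given as raw counts without normalisation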", "direction": "mitotic cells: higher = more cells in mitosis, weaker G2 arrest", "rule for the call": "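a call needs confirmation in secondary tests, with other dsRNAs and a check of mitotic timing without damage, not just a high primary count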", "calls": "active = confirmed in follow-up tests; inactive = not confirmed", "note": "In all, the deposit lists about 23,000 reagents; this is a random part of those with a known target gene and a result. Over the whole deposit, 62 (0.27%) were called active. 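Calls come from follow-up tests whose scores are not deposited, so confirmed genes may have low counts here; counts are not normalised per plate.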 Raw values are not corrected between plates. A plus sign joins genes that one reagent is predicted to hit. Reagent sequences are not shown."}
{"target gene":"CG2209","dsRNA":"DRSC19843","mitotic cells, replicate 1":12,"outcome":"inactive"}
{"target gene":"Obp44a","dsRNA":"DRSC06838","mitotic cells, replicate 1":5,"outcome":"inactive"}
{"target gene":"Obp44a","dsRNA":"DRSC26785","mitotic cells, replicate 1":8,"outcome":"inactive"}
{"target gene":"wrm1","dsRNA":"DRSC11007","mitotic cells, replicate 1":6,"outcome":"inactive"}
{"target gene":"wrm1","dsRNA":"DRSC24006","mitotic cells, replicate 1":4,"outcome":"inactive"}
{"target gene":"CG3223","dsRNA":"DRSC15468","mitotic cells, replicate 1":7,"outcome":"inactive"}
{"target gene":"CG3223","dsRNA":"DRSC28290","mitotic cells, replicate 1":2,"outcome":"inactive"}
{"target gene":"CG13482","dsRNA":"DRSC10024","mitotic cells, replicate 1":5,"outcome":"inactive"}
{"target gene":"CG13482","dsRNA":"DRSC23975","mitotic cells, replicate 1":1,"outcome":"inactive"}
{"target gene":"Brf","dsRNA":"DRSC14166","mitotic cells, replicate 1":2,"outcome":"inactive"}
{"target gene":"Brf","dsRNA":"DRSC14167","mitotic cells, replicate 1":4,"outcome":"inactive"}
{"target gene":"gskt","dsRNA":"DRSC14056","mitotic cells, replicate 1":5,"outcome":"inactive"}
{"target gene":"gskt","dsRNA":"DRSC25861","mitotic cells, replicate 1":4,"outcome":"inactive"}
{"target gene":"betaTub60D","dsRNA":"DRSC04673","mitotic cells, replicate 1":3,"outcome":"inactive"}
{"target gene":"betaTub60D","dsRNA":"DRSC22218","mitotic cells, replicate 1":5,"outcome":"inactive"}
{"target gene":"betaTub60D","dsRNA":"DRSC23872","mitotic cells, replicate 1":5,"outcome":"inactive"}
{"target gene":"edin","dsRNA":"DRSC09488","mitotic cells, replicate 1":34,"outcome":"inactive"}
{"target gene":"Pex16","dsRNA":"DRSC11750","mitotic cells, replicate 1":4,"outcome":"inactive"}
{"target gene":"CG5846","dsRNA":"DRSC02904","mitotic cells, replicate 1":4,"outcome":"inactive"}
{"target gene":"CG8204","dsRNA":"DRSC07106","mitotic cells, replicate 1":9,"outcome":"inactive"}
{"target gene":"Topors","dsRNA":"DRSC06531","mitotic cells, replicate 1":12,"outcome":"active"}
{"target gene":"Jhbp1","dsRNA":"DRSC12167","mitotic cells, replicate 1":6,"outcome":"inactive"}
{"target gene":"Jhbp1","dsRNA":"DRSC26183","mitotic cells, replicate 1":2,"outcome":"inactive"}
{"target gene":"Trmt61","dsRNA":"DRSC14888","mitotic cells, replicate 1":6,"outcome":"inactive"}
{"target gene":"CG31010","dsRNA":"DRSC14006","mitotic cells, replicate 1":7,"outcome":"inactive"}
{"target gene":"S-Lap4","dsRNA":"DRSC10957","mitotic cells, replicate 1":5,"outcome":"inactive"}
{"target gene":"S-Lap4","dsRNA":"DRSC25977","mitotic cells, replicate 1":9,"outcome":"inactive"}
{"target gene":"mRpL4","dsRNA":"DRSC03562","mitotic cells, replicate 1":8,"outcome":"inactive"}
{"target gene":"Su(var)205","dsRNA":"DRSC03446","mitotic cells, replicate 1":6,"outcome":"inactive"}
{"target gene":"Irp-1B","dsRNA":"DRSC16720","mitotic cells, replicate 1":5,"outcome":"inactive"}
{"target gene":"Irp-1B","dsRNA":"DRSC24261","mitotic cells, replicate 1":7,"outcome":"inactive"}
{"target gene":"CG7006","dsRNA":"DRSC16169","mitotic cells, replicate 1":11,"outcome":"inactive"}
{"target gene":"CG42507 + Trl","dsRNA":"DRSC09325","mitotic cells, replicate 1":6,"outcome":"inactive"}
{"target gene":"CG42507 + Trl","dsRNA":"DRSC25045","mitotic cells, replicate 1":8,"outcome":"inactive"}
